This note sets out measurements from publication PMC10163288.

Sequences and labels used below:
B1: il10ra_site1_normal_mot_HHH_b1_06994_000000193_0001_40_55_H_._HHH_b2_01485_0001_0000400029_0000001_0 (protein)
chain: SSSSNEEELLEAVKRLIEQAIKNGDPRSARFLVEALEILARLNNDPEAEEEAERLEEEVKKSSSS
B2: il10ra_site1_normal_mot_HHH_b2_00475_000000107_0001_44_57_H_._HHH_b1_04904_0002_0000100004_0000002_0 (protein)
chain: SSSSDIIEVMYRLTRAVAEGDEEEIRELLEELEELLKKADEELEKYIEILLHFARSQLENASSSS
B3: il10ra_site1_sap_32_mot_HHH_b2_06311_000000217_0001_1_16_H_._HHH_b1_07065_0001_0000100002_0000001_1_0001_af2pred_0001 (protein)
chain: SSSSSREEEAIRLTLRFAEFLAEEGNPELAREFLEFAKELAEKTNDEEAEEEIKEVEERLSSSSS
B4: il10ra_site1_sap_24_mot_HHH_b1_01513_af2_000000021_0001_1_16_H_._HHH_b2_03132_0001_0000300007_0000001_0_0001 (protein)
chain: SSSSSDIEERVEELIEELEELLKNGDPERASHVAVEALRLIYRLGDAELLRELWELFASLSSSSS
B5: il10ra_site1_normal_mot_b26a303360aa2756ef5b79665ce52f45_0001_000000179_0001_1_11_H_._HHH_b2_05266_af2_0001_0000200008_0000001_0 (protein)
chain: SSSSSSDEENRRAIELVREALHIDDPEEAEKLLEEARELAEEVNNFVLLFSIRHLLRDLGSSSSS
B6: il10ra_site1_normal_mot_HHH_b2_00033_000000036_0001_41_54_H_._HHH_b1_00094_af2_0001_0000300009_0000001_0 (protein)
chain: SSSSSEEEEEIRELEEQAKKARERGDPEEAARLLAEAVRLAHKLGDPELFQELWELVKKIASSSS
B7: il10ra_site1_sap_7_mot_HHH_b2_01447_af2_000000258_0001_1_20_H_._HHH_b1_01074_0001_0000100001_0000001_0_0001 (protein)
chain: SSSSSDEEEVEELLRRAEELRERGDPEEANELLQRAVRIAYQARNEELLREIWEVVKRLGSSSSS
B8: il10ra_site1_normal_mot_HHH_b1_05937_af2_000000262_0001_20_37_H_._HHH_b1_00702_0001_0000200012_0000002_0 (protein)
chain: SSSSDREEVRELLEQLEEAYEEGDREKFLRLIIRALRLIFRIGDDELIRELHELVKRLASSSSSS
B9: il10ra_site1_sap_17_mot_HHH_b1_01226_000000225_0001_1_19_H_._HHH_b2_06475_0001_0000200007_0000001_1_0001_af2pred_0001 (protein)
chain: SSSSSDEERRILKLYFRAYHLKENGDPEEARKLLEEALELAEEINDEALKRLIKRMLELLSSSSS
B10: il10ra_site1_normal_mot_HHH_b1_06837_000000150_0001_20_37_H_._HHH_b1_05137_0001_0000100003_0000001_0 (protein)
chain: SSSSTEENREIYELLRRASELDFEGNPEEAKEVLEEAERLAEENNNLNLLAQVEFLLRLISSSSS
B11: il10ra_site1_sap_18_mot_HHH_b2_00984_000000042_0001_1_20_H_._HHH_b2_05460_af2_0001_0000100001_0000001_0_0001_af2pred_0001 (protein)
chain: SSSSSSEELRRLLEEASELLQRGNEEEAEEVLEEARKLAEEENDPITRLAIEYLLRLIGSSSSSS
B12: il10ra_site1_sap_14_mot_HHH_b1_05083_af2_000000148_0001_42_57_H_._HHH_b2_07711_0001_0000100002_0000001_0_0001 (protein)
chain: SSSSSDDRVKEAVERMLKAARQLEDEEYARLALRFALADARHTNDEELQEEVEELLEEISSSSSS
B13: il10ra_site1_sap_23_mot_0eddeacbb14b769e73e254714f31e2f9_0001_af2_000000203_0001_37_51_H_._HHH_b2_01631_0001_0000100002_0000001_0_0001_af2pred_0001 (protein)
chain: SSSSSEEEEEIEELIRQLEEALKRGDEEKALELFLRAAKLIKKLGNKELAQLLDETAIKALSSSS
B14: il10ra_site1_sap_27_mot_HHH_b2_02736_000000092_0001_22_38_H_._HHH_b1_02819_0001_0000100016_0000001_0_0001 (protein)
chain: SSSSSRELYEALRRLAQLDTEGDEEEFERLVEEAERLAEEEGDRIFLLVIRAMLELFRKFNSSSS
B15: il10ra_site1_normal_mot_HHH_b1_05056_000000217_0001_1_20_H_._HHH_b2_02752_0001_0000300028_0000001_0 (protein)
chain: SSSSDLEEELEELLRELEKLIEEGDREKFARLALEIIRLAFRTGDPEVLQKLWELVREFASSSSS
B16: il10ra_site1_normal_mot_49468d6c54d8157f7969f91124172a68_0001_af2_000000173_0001_37_51_H_._HHH_b2_06864_af2_0001_0000100002_0000002_0_af2pred_0001 (protein)
chain: SSSSEESERILTEAAQLIVELLREGDEEEAERVAEEARRLLEELNDPEAVHLLEALLHQQKSSSS
B17: il10ra_site1_normal_mot_HHH_b1_00137_000000000_0001_1_19_H_._HHH_b2_06740_0001_0000500012_0000001_0 (protein)
chain: SSSDDQELTRFAAEVVVKLYDELGLSREQFRVLQELALKLVAEGFSEEEIRRILEEVAEELSSSS
B18: il10ra_site1_sap_25_mot_HHH_b1_05088_af2_000000046_0001_20_36_H_._ef5a302c84959cb026c21f894a3b1351_0001_0001_0000700018_0000001_0_0001_af2pred_0001 (protein)
chain: SSSSSHAEKAVKLFIRMAERAIELGDPETARRILRFAEFLAEEANNPELLEEARELLEQLKSSSS

This is one part of the list.

This assay deals with il10ra, Q13651. Nature of the assay: yeast display titration.
Turning to B1, the “apparent Kd” value was “inactive: no binding seen”. Under B2 stands “inactive: no binding seen”. For B3 the value was “inactive: no binding seen”; for B4, “inactive: no binding seen”; for B5, “inactive: no binding seen”. As to B6, the “apparent Kd” value was “inactive: no binding seen”. Consider B7, for which the “apparent Kd” value is “inactive: no binding seen”.

Turning to B8, the “apparent Kd” value was “inactive: no binding seen”. Under B9 stands “inactive: no binding seen”.

Consider B10, for which the “apparent Kd” value was “inactive: no binding seen”. As for B11, the “apparent Kd” value is “inactive: no binding seen”. As to B12, the “apparent Kd” value was “inactive: no binding seen”. For B13 the value was “inactive: no binding seen”; for B14, “inactive: no binding seen”.

In the case of B15, the “apparent Kd” value is “inactive: no binding seen”. For B16 the value was “inactive: no binding seen”.

Consider B17, for which the “apparent Kd” value is “inactive: no binding seen”.

Turning to B18, the “apparent Kd” value was “inactive: no binding seen”.
